No constants are given. Whether binding was seen depends on the method and setting. Binding seen in cells or lysates may run through a third protein. Some entries that bind do so weakly or less than the wild type.
Assays:
[1] = biological target: YAP (human (endogenous in CD133- pancreatic cancer cells)) (UniProt P46937); assay: co-IP; lysates of CD133- cancer cells treated with or without rhHMGB1, under normoxia or hypoxia; immunoprecipitated with 2 ug anti-YAP overnight at 4 °C, protein A/G agarose beads, washed three times with lysis buffer
[2] = biological target: TLR2 receptor (human (endogenous in CD133- pancreatic cancer cells)) (UniProt O60603); assay: co-IP; CD133- cancer cells cultured with 250 ng/ml rhHMGB1, then lysed; lysates immunoprecipitated with 2 ug anti-TLR2 overnight at 4 °C, protein A/G agarose beads, washed three times with lysis buffer; only the binder purified

Chains of the proteins cited; added tags and fusions are not shown.
UniProt P46937: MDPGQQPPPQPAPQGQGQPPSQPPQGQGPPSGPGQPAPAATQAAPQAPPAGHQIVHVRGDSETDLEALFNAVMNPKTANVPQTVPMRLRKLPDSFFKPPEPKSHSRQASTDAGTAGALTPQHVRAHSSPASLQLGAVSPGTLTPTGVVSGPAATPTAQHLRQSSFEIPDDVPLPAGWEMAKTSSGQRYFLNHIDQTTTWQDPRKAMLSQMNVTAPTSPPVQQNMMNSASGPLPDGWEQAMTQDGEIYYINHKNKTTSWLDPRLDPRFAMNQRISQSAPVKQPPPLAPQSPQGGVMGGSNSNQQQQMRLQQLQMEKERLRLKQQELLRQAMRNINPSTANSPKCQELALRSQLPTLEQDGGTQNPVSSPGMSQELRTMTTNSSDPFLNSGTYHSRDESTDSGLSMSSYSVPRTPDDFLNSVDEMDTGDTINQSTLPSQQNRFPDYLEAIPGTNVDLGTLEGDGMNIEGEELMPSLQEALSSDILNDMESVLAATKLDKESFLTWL
UniProt O60603: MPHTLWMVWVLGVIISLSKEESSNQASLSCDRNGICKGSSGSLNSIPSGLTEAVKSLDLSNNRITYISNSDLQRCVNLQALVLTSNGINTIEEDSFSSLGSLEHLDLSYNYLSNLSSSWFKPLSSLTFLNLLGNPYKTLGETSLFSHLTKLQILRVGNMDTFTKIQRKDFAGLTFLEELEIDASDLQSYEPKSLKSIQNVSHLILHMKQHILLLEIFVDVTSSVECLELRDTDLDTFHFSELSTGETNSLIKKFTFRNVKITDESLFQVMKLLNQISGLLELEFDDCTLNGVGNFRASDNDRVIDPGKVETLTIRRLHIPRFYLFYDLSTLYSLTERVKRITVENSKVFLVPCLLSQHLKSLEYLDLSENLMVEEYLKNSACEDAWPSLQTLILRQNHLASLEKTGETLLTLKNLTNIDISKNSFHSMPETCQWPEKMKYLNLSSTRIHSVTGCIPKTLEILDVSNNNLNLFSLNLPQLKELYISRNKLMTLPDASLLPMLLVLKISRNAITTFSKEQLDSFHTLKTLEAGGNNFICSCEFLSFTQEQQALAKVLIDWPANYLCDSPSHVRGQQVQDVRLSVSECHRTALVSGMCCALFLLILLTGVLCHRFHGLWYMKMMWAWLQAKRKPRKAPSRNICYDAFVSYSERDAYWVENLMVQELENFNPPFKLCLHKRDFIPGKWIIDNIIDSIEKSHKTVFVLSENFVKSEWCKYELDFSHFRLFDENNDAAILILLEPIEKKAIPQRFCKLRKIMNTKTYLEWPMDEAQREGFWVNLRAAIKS
UniProt Q16665: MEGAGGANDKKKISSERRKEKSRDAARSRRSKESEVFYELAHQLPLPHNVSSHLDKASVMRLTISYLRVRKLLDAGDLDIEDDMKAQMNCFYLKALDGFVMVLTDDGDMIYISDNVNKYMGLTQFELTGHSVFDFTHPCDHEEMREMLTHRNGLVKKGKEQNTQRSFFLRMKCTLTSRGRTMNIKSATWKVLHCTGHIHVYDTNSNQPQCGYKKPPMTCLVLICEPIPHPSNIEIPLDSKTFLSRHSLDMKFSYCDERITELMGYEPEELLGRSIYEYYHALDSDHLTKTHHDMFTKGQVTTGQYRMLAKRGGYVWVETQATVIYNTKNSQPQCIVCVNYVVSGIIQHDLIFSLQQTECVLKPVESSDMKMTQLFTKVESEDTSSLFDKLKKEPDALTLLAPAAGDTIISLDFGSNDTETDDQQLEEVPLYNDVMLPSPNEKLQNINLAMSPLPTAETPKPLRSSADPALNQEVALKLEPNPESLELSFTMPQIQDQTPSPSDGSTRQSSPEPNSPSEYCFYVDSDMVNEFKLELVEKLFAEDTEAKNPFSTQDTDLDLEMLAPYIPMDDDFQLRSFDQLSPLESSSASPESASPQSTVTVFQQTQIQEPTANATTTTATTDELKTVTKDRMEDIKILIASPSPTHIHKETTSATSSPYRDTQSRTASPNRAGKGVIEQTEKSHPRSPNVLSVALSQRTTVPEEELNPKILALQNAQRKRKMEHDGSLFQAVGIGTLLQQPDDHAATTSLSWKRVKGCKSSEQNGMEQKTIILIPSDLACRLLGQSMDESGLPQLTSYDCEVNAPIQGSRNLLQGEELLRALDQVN
UniProt P09429: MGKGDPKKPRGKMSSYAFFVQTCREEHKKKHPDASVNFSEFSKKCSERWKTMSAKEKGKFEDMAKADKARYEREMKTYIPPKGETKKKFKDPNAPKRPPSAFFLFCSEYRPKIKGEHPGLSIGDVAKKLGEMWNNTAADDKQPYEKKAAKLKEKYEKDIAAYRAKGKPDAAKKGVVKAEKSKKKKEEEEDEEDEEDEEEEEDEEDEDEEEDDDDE

Row | Substance | binding [1] | binding [2]
1 | hypoxia-inducible factor 1α (from UniProt Q16665 1-826) | binds | 
2 | recombinant human HMGB1 (from UniProt P09429 1-215) (ligand) |  | binds

— paper PMC6763460
